The source of these data is patent US11393988B2, “Metal complexes” (Merck Patent GmbH, priority 2014, dated 2022).

The series is described as follows: Vacuum-processed OLEDs with the complexes as phosphorescent emitter (efficiency, voltage, colour, lifetime). The following applies: for LT80 (h) 1000 cd/m^2: orange-red, yellow and green OLEDs, time to 80% of initial luminous density 1000 cd/m^2; for Voltage (V) 1000 cd/m^2 / EQE (%) 1000 cd/m^2: vacuum-processed OLED, at 1000 cd/m^2; for EQE (%) 1000 cd/m^2: complex as emitter in EML (structure per Table 1).

`CC1(C)CCC(C)(C)c2c[c]([Ir]([c]3ccccc3-c3ccccn3)[c]3ccccc3-c3ccccn3)c(-c3ccc(-c4ccccc4)cn3)cc21` [Ir501]: the “LT80 (h) 1000 cd/m^2” value was 27000 h, the “Voltage (V) 1000 cd/m^2” value was found to be 3.1 V and the “EQE (%) 1000 cd/m^2” value is on record as 24.0%.

In the case of `CC(C)(C)c1ccc(-c2cc3c(c[c]2[Ir]([c]2ccccc2-c2ccccn2)[c]2ccccc2-c2ccccn2)C(C)(C)CCC3(C)C)nc1` [Ir502], the “LT80 (h) 1000 cd/m^2” value was determined as 20000 h, the “Voltage (V) 1000 cd/m^2” value is 3.2 V and the “EQE (%) 1000 cd/m^2” value is 23.9%.

As to `CC1(C)CCC(C)(C)c2c[c]([Ir]([c]3ccccc3-c3ccccn3)[c]3ccccc3-c3ccccn3)c(-c3cc(-c4ccccc4)ccn3)cc21` [Ir505], the “LT80 (h) 1000 cd/m^2” value amounted to 41000 h, the “Voltage (V) 1000 cd/m^2” value came out at 2.9 V and the “EQE (%) 1000 cd/m^2” value is reported as 23.9%.

As to `Cc1cccnc1-c1cc2c(c[c]1[Ir]([c]1ccccc1-c1ccccn1)[c]1ccccc1-c1ccccn1)C(C)(C)CCC2(C)C` [Ir506], the “LT80 (h) 1000 cd/m^2” value worked out at 20000 h, the “Voltage (V) 1000 cd/m^2” value was 3.1 V and the “EQE (%) 1000 cd/m^2” value was 24.0%.

With `CC(C)(C)c1cnc(-c2cc3c(c[c]2[Ir]([c]2ccccc2-c2ccccn2)[c]2ccccc2-c2ccccn2)C(C)(C)CCC3(C)C)cn1` [Ir507], the “LT80 (h) 1000 cd/m^2” value was 20000 h, the “Voltage (V) 1000 cd/m^2” value is listed as 3.2 V and the “EQE (%) 1000 cd/m^2” value was determined as 22.8%.

For `CC1(C)CCC(C)(C)c2c[c]([Ir]([c]3ccccc3-c3ccccn3)[c]3ccccc3-c3ccccn3)c(-c3cc4ccccc4cn3)cc21` [Ir508], the “Voltage (V) 1000 cd/m^2” value is 3.0 V and the “EQE (%) 1000 cd/m^2” value amounted to 22.6%.

Turning to `Cc1ccc2nc(-c3cc4c(c[c]3[Ir]([c]3ccccc3-c3ccccn3)[c]3ccccc3-c3ccccn3)C(C)(C)CCC4(C)C)c(C)cc2c1` [Ir509], the “LT80 (h) 1000 cd/m^2” value worked out at 23000 h, the “Voltage (V) 1000 cd/m^2” value is listed as 3.1 V and the “EQE (%) 1000 cd/m^2” value is 19.5%.

As for `CC1(C)CCC(C)(C)c2cc3nc(-c4cccc[c]4[Ir]([c]4ccccc4-c4ccccn4)[c]4ccccc4-c4ccccn4)cnc3cc21` [Ir516], the “Voltage (V) 1000 cd/m^2” value came out at 3.1 V and the “EQE (%) 1000 cd/m^2” value came out at 17.1%.

As to `Cc1nc2cc3c(cc2nc1-c1cccc[c]1[Ir]([c]1ccccc1-c1ccccn1)[c]1ccccc1-c1ccccn1)C(C)(C)CCC3(C)C` [Ir517], the “LT80 (h) 1000 cd/m^2” value is on record as 11000 h, the “Voltage (V) 1000 cd/m^2” value is 3.2 V and the “EQE (%) 1000 cd/m^2” value turned out to be 17.4%.

As for `CC1(C)CCC(C)(C)c2cc3c(-c4cccc[c]4[Ir]([c]4ccccc4-c4ccccn4)[c]4ccccc4-c4ccccn4)nccc3cc21` [Ir520], the “LT80 (h) 1000 cd/m^2” value is on record as 18000 h, the “Voltage (V) 1000 cd/m^2” value is 3.1 V and the “EQE (%) 1000 cd/m^2” value is recorded as 17.2%.

As to `CC(C)(C)c1ccc(-c2nccc3cc4c(cc23)C(C)(C)CCC4(C)C)[c]([Ir]([c]2ccccc2-c2ccccn2)[c]2ccccc2-c2ccccn2)c1` [Ir521], the “LT80 (h) 1000 cd/m^2” value was 18000 h, the “Voltage (V) 1000 cd/m^2” value is listed as 3.1 V and the “EQE (%) 1000 cd/m^2” value came out at 17.8%.

With `CC1(C)CCC(C)(C)c2c[c]([Ir]([c]3ccccc3-c3ccccn3)[c]3ccccc3-c3ccccn3)c(-c3nccc4cc5c(cc34)C(C)(C)CCC5(C)C)cc21` [Ir522], the “LT80 (h) 1000 cd/m^2” value is given as 20000 h, the “Voltage (V) 1000 cd/m^2” value stood at 3.1 V and the “EQE (%) 1000 cd/m^2” value turned out to be 18.2%.

In the case of `CC1(C)CCC(C)(C)c2cc3cc(-c4cccc[c]4[Ir]([c]4ccccc4-c4ccccn4)[c]4ccccc4-c4ccccn4)ncc3cc21` [Ir524], the “LT80 (h) 1000 cd/m^2” value is on record as 21000 h, the “Voltage (V) 1000 cd/m^2” value was 3.0 V and the “EQE (%) 1000 cd/m^2” value was determined as 19.3%.

Consider `CC1(C)CCC(C)(C)c2cc(-c3cc4c(c[c]3[Ir]([c]3ccccc3-c3ccccn3)[c]3ccccc3-c3ccccn3)C(C)(C)CCC4(C)C)ncc21` [Ir529], for which the “LT80 (h) 1000 cd/m^2” value is reported as 25000 h, the “Voltage (V) 1000 cd/m^2” value is 3.2 V and the “EQE (%) 1000 cd/m^2” value was determined as 24.3%.

As for `Cc1cccnc1-c1cccc[c]1[Ir]([c]1cc2c(cc1-c1cc(-c3ccccc3)ccn1)C(C)(C)CCC2(C)C)[c]1cc2c(cc1-c1cc(-c3ccccc3)ccn1)C(C)(C)CCC2(C)C` [Ir537], the “LT80 (h) 1000 cd/m^2” value came to 40000 h, the “Voltage (V) 1000 cd/m^2” value was found to be 2.9 V and the “EQE (%) 1000 cd/m^2” value stood at 22.1%.

In the case of `Cc1cccnc1-c1cccc[c]1[Ir]([c]1cc2c(cc1-c1ncccc1C)C(C)(C)CCC2(C)C)[c]1cc2c(cc1-c1ncccc1C)C(C)(C)CCC2(C)C` [Ir538], the “LT80 (h) 1000 cd/m^2” value is 24000 h, the “Voltage (V) 1000 cd/m^2” value was 3.2 V and the “EQE (%) 1000 cd/m^2” value is listed as 24.0%.

With `CC1(C)CCC(C)(C)c2c[c]([Ir]([c]3ccc(-c4ccccc4)cc3-c3ccccn3)[c]3cc4c(cc3-c3cc5ccccc5cn3)C(C)(C)CCC4(C)C)c(-c3cc4ccccc4cn3)cc21` [Ir539], the “Voltage (V) 1000 cd/m^2” value came to 3.1 V and the “EQE (%) 1000 cd/m^2” value amounted to 19.5%.

Take `CC1(C)CCC(C)(C)c2c[c]([Ir]([c]3cc4c(cc3-c3cc5c(cn3)C(C)(C)CC5(C)C)C(C)(C)CCC4(C)C)[c]3cc4c(cc3-c3cc5c(cn3)C(C)(C)CC5(C)C)C(C)(C)CCC4(C)C)c(-c3ccccn3)cc21` [Ir543]: the “LT80 (h) 1000 cd/m^2” value amounted to 25000 h, the “Voltage (V) 1000 cd/m^2” value came out at 3.3 V and the “EQE (%) 1000 cd/m^2” value stood at 24.3%.

`CC1(C)CCC(C)(C)c2cc3c(-c4cccc[c]4[Ir]([c]4ccccc4-c4ccccn4)[c]4ccccc4-c4nccc5cc6c(cc45)C(C)(C)CCC6(C)C)nccc3cc21` [Ir547]: the “LT80 (h) 1000 cd/m^2” value is given as 20000 h, the “Voltage (V) 1000 cd/m^2” value worked out at 3.0 V and the “EQE (%) 1000 cd/m^2” value worked out at 18.9%.

For `CC(C)(C)c1ccc(-c2nccc3cc4c(cc23)C(C)(C)CCC4(C)C)[c]([Ir]([c]2ccccc2-c2cc3ccccc3cn2)[c]2cc(C(C)(C)C)ccc2-c2nccc3cc4c(cc23)C(C)(C)CCC4(C)C)c1` [Ir548], the “LT80 (h) 1000 cd/m^2” value worked out at 22000 h, the “Voltage (V) 1000 cd/m^2” value was determined as 3.0 V and the “EQE (%) 1000 cd/m^2” value was determined as 19.5%.

As to `CC1(C)CCC(C)(C)c2cc3cc(-c4cccc[c]4[Ir]([c]4ccccc4-c4ccccn4)[c]4ccccc4-c4cc5cc6c(cc5cn4)C(C)(C)CCC6(C)C)ncc3cc21` [Ir554], the “LT80 (h) 1000 cd/m^2” value was determined as 19000 h, the “Voltage (V) 1000 cd/m^2” value came to 3.0 V and the “EQE (%) 1000 cd/m^2” value was determined as 19.688%.

With `CC(C)(C)c1ccc2[n+](c1)[Ir-3]13([c]4cc5c(cc4-2)C(C)(C)CCC5(C)C)([c]2cc4c(cc2-c2ccc(C(C)(C)C)c[n+]21)C(C)(C)CCC4(C)C)[c]1cc2c(cc1-c1ccc(C(C)(C)C)c[n+]13)C(C)(C)CCC2(C)C` [Ir(LH3)3], the “LT80 (h) 1000 cd/m^2” value was 20000 h, the “Voltage (V) 1000 cd/m^2” value was determined as 3.3 V and the “EQE (%) 1000 cd/m^2” value is given as 24.1%.

Turning to `Cc1cccc2c1ccc1[n+]2[Ir-3]23([c]4cc5c(cc4-1)C(C)(C)CCC5(C)C)([c]1cc4c(cc1-c1ccc5c(C)cccc5[n+]12)C(C)(C)CCC4(C)C)[c]1cc2c(cc1-c1ccc4c(C)cccc4[n+]13)C(C)(C)CCC2(C)C` [Ir(LH4)3], the “Voltage (V) 1000 cd/m^2” value is on record as 3.1 V and the “EQE (%) 1000 cd/m^2” value is on record as 18.5%.

As for `CC(C)(C)c1c[n+]2c(cn1)-c1cc3c(c[c]1[Ir-3]214([c]2cc5c(cc2-c2cnc(C(C)(C)C)c[n+]21)C(C)(C)CCC5(C)C)[c]1cc2c(cc1-c1cnc(C(C)(C)C)c[n+]14)C(C)(C)CCC2(C)C)C(C)(C)CCC3(C)C` [Ir(LH8)3], the “Voltage (V) 1000 cd/m^2” value was determined as 3.0 V and the “EQE (%) 1000 cd/m^2” value was 21.3%.

As for `CC1(C)CCC(C)(C)c2c[c]3c(cc21)-c1cc2ccccc2c[n+]1[Ir-3]312([c]3cc4c(cc3-c3cc5ccccc5c[n+]31)C(C)(C)CCC4(C)C)[c]1cc3c(cc1-c1cc4ccccc4c[n+]12)C(C)(C)CCC3(C)C` [Ir(LH9)3], the “LT80 (h) 1000 cd/m^2” value was determined as 17000 h, the “Voltage (V) 1000 cd/m^2” value worked out at 3.0 V and the “EQE (%) 1000 cd/m^2” value is 19.6%.

For `Cc1ccc2c(c1)cc(C)c1[n+]2[Ir-3]23([c]4cc5c(cc4-1)C(C)(C)CCC5(C)C)([c]1cc4c(cc1-c1c(C)cc5cc(C)ccc5[n+]12)C(C)(C)CCC4(C)C)[c]1cc2c(cc1-c1c(C)cc4cc(C)ccc4[n+]13)C(C)(C)CCC2(C)C` [Ir(LH10)3], the “Voltage (V) 1000 cd/m^2” value worked out at 3.1 V and the “EQE (%) 1000 cd/m^2” value is recorded as 18.9%.

`CC1(C)CCC(C)(C)c2c[c]3c(cc21)-c1cc2c(c[n+]1[Ir-3]314([c]3cc5c(cc3-c3cc6c(c[n+]31)C(C)(C)CC6(C)C)C(C)(C)CCC5(C)C)[c]1cc3c(cc1-c1cc5c(c[n+]14)C(C)(C)CC5(C)C)C(C)(C)CCC3(C)C)C(C)(C)CC2(C)C` [Ir(LH16)3]: the “LT80 (h) 1000 cd/m^2” value turned out to be 24000 h, the “Voltage (V) 1000 cd/m^2” value was determined as 3.3 V and the “EQE (%) 1000 cd/m^2” value worked out at 24.3%.

Turning to `CC1(C)CCC(C)(C)c2cc3c4[n+](ccc3cc21)[Ir-3]12([c]3ccccc3-4)([c]3ccccc3-c3c4cc5c(cc4cc[n+]31)C(C)(C)CCC5(C)C)[c]1ccccc1-c1c3cc4c(cc3cc[n+]12)C(C)(C)CCC4(C)C` [Ir(LH26)3], the “LT80 (h) 1000 cd/m^2” value was 19000 h, the “Voltage (V) 1000 cd/m^2” value is on record as 3.0 V and the “EQE (%) 1000 cd/m^2” value is on record as 18.5%.

Regarding `CC(C)(C)c1ccc2[c](c1)[Ir-3]13([c]4cc(C(C)(C)C)ccc4-c4c5cc6c(cc5cc[n+]41)C(C)(C)CCC6(C)C)([c]1cc(C(C)(C)C)ccc1-c1c4cc5c(cc4cc[n+]13)C(C)(C)CCC5(C)C)[n+]1ccc3cc4c(cc3c1-2)C(C)(C)CCC4(C)C` [Ir(LH27)3], the “LT80 (h) 1000 cd/m^2” value is given as 18000 h, the “Voltage (V) 1000 cd/m^2” value came to 3.0 V and the “EQE (%) 1000 cd/m^2” value was 18.4%.

On to `CC1(C)CCC(C)(C)c2cc3c4[n+](ccc3cc21)[Ir-3]12([c]3cc5c(cc3-4)C(C)(C)CC5(C)C)([c]3cc4c(cc3-c3c5cc6c(cc5cc[n+]31)C(C)(C)CCC6(C)C)C(C)(C)CC4(C)C)[c]1cc3c(cc1-c1c4cc5c(cc4cc[n+]12)C(C)(C)CCC5(C)C)C(C)(C)CC3(C)C` [Ir(LH32)3], for which the “LT80 (h) 1000 cd/m^2” value is given as 18000 h, the “Voltage (V) 1000 cd/m^2” value worked out at 3.2 V and the “EQE (%) 1000 cd/m^2” value is 18.9%.
